Source: PubChem BioAssay AID720533 (National Center for Advancing Translational Sciences (NCATS), 2013)
Several values for one entry are separate records, joined by “and”; a condition that tells them apart may be missing. Equal values may be shown once. Screen size: about 18,000 compounds; about 750 (4.2%) were called active. The shares of active, inactive and inconclusive entries below differ from those in the screen. Calls come from the whole dose curve; tested in HEK293 cells. A potency beside an inconclusive call is a rough fit, not a confirmed value. More than one record can exist for a structure, and the calls need not agree. Starred links: 1 amine or outer side, 2 acyl side, 3 side chain; linkers in the order of their positions; H or OH if unused. Positions of bridges follow the written chain, without caps; N, C: chain ends. Non-standard residues stand in square brackets, D forms with d. Residues, ends and D or L forms follow the SMILES beside them. Chains are numbered I, II in the order given. *: point of attachment. Actinocin(9to1) = Cc1c2oc3c(C)ccc(C(=O)[*:1])c3nc-2c(C(=O)[*:2])c(N)c1=O; NMeV = CN[CH](C(=O)O)C(C)C; Cbz = O=C(OCc1ccccc1)*; Sar = CNCC(=O)O

Experiment: qHTS for Inhibitors of binding or entry into cells for Lassa Virus
Conditions: Lassa virus pseudotyped entry inhibition, cell-based qHTS; activity change, negative = inhibition: at 49.2 µM (top of the series) unless noted
% is set by controls: 0 for no effect and ±100 for the full control effect; potency is the fitted concentration of half-maximal effect.

SMILES	Potency	activity change, negative = inhibition
COCc1ccc(CN2CCOc3c(cc(-c4cc(C)c5cccc(OC)c5n4)cc3OC)C2)o1	inconclusive: 35.5 µM [inhibitor, partial curve]	
CCCCC/C=C\C/C=C\C/C=C\CC1OC1CCCC(=O)O (stereo unspecified)	inactive	
O=C1OCCN1C(=O)[C@H]1[C@H](c2ccccc2)C(c2ccc(F)cc2)=NN1c1ccccc1	inconclusive: 15.8 µM [inhibitor, partial curve]	
Cc1cccc(C2=NN(c3ccccc3)[C@H](CO)[C@H]2c2ccc(F)cc2)c1	inconclusive: 44.7 µM [inhibitor, single point]	
O=C1CSC(c2ccccc2Cl)c2cc(Cl)ccc2N1 (stereo unspecified)	inconclusive: 31.6 µM [inhibitor, partial curve]	
CCCC[C@H]1C(=O)O[C@H](C)[C@H](NC(=O)c2cccc(NC=O)c2OC)C(=O)O[C@@H](C)[C@@H]1OC(=O)CC(C)C	inconclusive: 20 µM [inhibitor, partial curve]	
CCCCCCCCCCCC[n+]1ccc2ccccc2c1	active: 8.91 µM	
CCCOc1ccc2[nH]cc(C3=CCNCC3)c2n1	inconclusive: 22.4 µM [inhibitor, partial curve]	
COc1cccc(-c2cc(=O)c3cc(O)ccc3o2)c1	inconclusive: 25.1 µM [inhibitor, single point]	
Cc1c2oc3c(C)ccc(C(=O)NC4C(=O)NC(C(C)C)C(=O)N5CCCC5C(=O)N(C)CC(=O)N(C)C(C(C)C)C(=O)OC4C)c3nc-2c(C(=O)NC2C(=O)NC(C(C)C)C(=O)N3CCCC3C(=O)N(C)CC(=O)N(C)C(C(C)C)C(=O)OC2C)c(N)c1=O (stereo unspecified) (I: TVP[Sar][NMeV] / II: TVP[Sar][NMeV]; ester I:1-I:C, II:1-II:C; linker I:N-II:N via Actinocin(9to1); configuration not given here)	inconclusive: 17.8 µM [inhibitor, partial curve, poor fit]	
Cc1ccccc1CN1[C@@H](c2ccccc2)COc2c(Cl)cccc2S1(=O)=O	inconclusive: 17.7 µM [inhibitor, partial curve, poor fit]	
Cc1cc2c(c(-c3nc4ccccc4s3)c1)OC(CNC(=O)CCc1cccnc1)C2 (stereo unspecified)	inconclusive: 10 µM [inhibitor, partial curve]	
Cc1ccc2c(Br)cc(Br)c(O)c2n1	inconclusive: 25.1 µM [inhibitor, partial curve, poor fit]	
CC(COc1ccccc1)N(CCCl)Cc1ccccc1 (stereo unspecified)	active: 28.2 µM	
C[C@@H]1[C@H]2Cc3ccc(O)cc3[C@]1(C)CCN2C	inactive	
c1ccc(CCc2nc(-c3ccccc3)oc2Nc2ccc3ccccc3c2)cc1		inactive: 14.1% [at 8.59 µM]
O=[S+]1([O-])C[C@H](N2CC[C@@H](O)C2)[C@H](COCc2ccccc2)N1		inconclusive: -3.99% [inhibitor]
C[C@@H](/C=C\c1cccc(Oc2ccc(F)cc2)c1)N(O)C(N)=O	inconclusive: 25.1 µM [inhibitor, partial curve, poor fit]	
CCC1CN(CCNC(=O)c2cccc(C)n2)Cc2cc(OC)ccc2O1 (stereo unspecified)	inactive	
CC(C)C[C@@H](C=O)NC(=O)[C@H](CC(C)C)NC(=O)[C@H](CC(C)C)NC(=O)OCc1ccccc1 (Cbz-Leu-Leu-Leu-aldehyde)	active: 3.55 µM	

SMILES	Potency	activity change, negative = inhibition
CC(C)CON=C1C[C@@H](O)[C@@H](O)[C@@H]2[C@H]3C(=O)N(C4CCCCC4)C(=O)[C@@H]3CC[C@H]12		inactive: 31.4% [at 8.59 µM]
Cc1cc(-c2ccnc(-n3ncc(C(=O)NCC4CCCN(C)C4)c3C3CC3)n2)c(C)s1 (stereo unspecified)	inactive	
C=C1C[C@H]2[C@@H]3C=C(C)C4=CC(=O)CC[C@]4(C)[C@H]3CC[C@]2(C)[C@@]1(OC(C)=O)C(C)=O	inconclusive: 28.2 µM [inhibitor, single point]	
CCCCC(C)(O)C/C=C/[C@H]1[C@H](O)CC(=O)[C@@H]1CCCCCCC(=O)OC (stereo partly specified)	inconclusive: 15.8 µM [inhibitor, full curve, poor fit]	
O=C1C2=C(S[C@@H]3O[C@H](CO)[C@@H](O)[C@H](O)[C@H]3O2)C(=O)c2ccccc21	inconclusive: 3.16 µM [inhibitor, full curve]	
Nc1nc(=S)c2ncn([C@H]3O[C@@H](CO)[C@@H](O)[C@@H]3O)c2[nH]1	inconclusive: 6.31 µM [inhibitor, partial curve]	
C=CCNc1ccc2c(c1)OC[C@@H](CC(C)C)NS2(=O)=O		inconclusive: 8.8% [inhibitor]
Cc1cnc(-n2ncc(C(=O)NCCc3cccnc3)c2C)nc1-c1cccs1	inactive	
NC(N)=NCCCCCCCCCCN=C(N)N	inconclusive: 7.94 µM [inhibitor, partial curve]	
O=Nc1ccc(O)c2ncccc12	active: 2.51 µM	
OCCN1CCN(CCCN2c3ccccc3Sc3ccc(Cl)cc32)CC1	inconclusive: 35.5 µM [inhibitor, single point] and inconclusive: 11.2 µM [inhibitor, partial curve, poor fit]	
CN(C)CCc1c[nH]c2ccc(Cn3cncn3)cc12	inactive	
CC[C@@H](O)C(C[C@@H](C)N(C)C)(c1ccccc1)c1ccccc1	inconclusive: 31.6 µM [inhibitor, partial curve]	
COc1cc(/C=C/C(=O)O)cc(OC)c1OC	inactive	
Cc1occc1C(=O)Nc1cccc(-c2nc(CNC(=O)c3ccc(N4CCCCC4)cc3)c(C)o2)c1	inconclusive: 0.1 µM [inhibitor, full curve, poor fit]	
CCC(=O)O[C@H]1[C@@H](N2CCCCC2)C[C@H]2[C@@H]3CC[C@H]4C[C@H](OC(C)=O)[C@@H](N5CCCCC5)C[C@]4(C)[C@H]3CC[C@@]21C	inconclusive: 14.1 µM [inhibitor, full curve]	
CC[C@@H]1CN2CC[C@@H]1C[C@H]2[C@H](O)c1ccnc2ccc(OC)cc12	inconclusive: 35.5 µM [inhibitor, single point]	
NCCc1ccccn1	inactive	
O=C1CS(=O)(=O)N(Cc2ccc(F)cc2)c2ccccc21		inconclusive: -28.6% [inhibitor]
COC(=O)c1cncc(C=Cc2c(C)cc(O)cc2C)c1	inconclusive: 3.15 µM [inhibitor, full curve, poor fit]	
O=C(O)c1ccccc1OS(=O)(=O)O	inactive	

SMILES	Potency	activity change, negative = inhibition
O=C1c2ccccc2-n2c1nc1ccccc1c2=O	inconclusive: 8.91 µM [inhibitor, partial curve]	
CCN(CC)CCOc1ccc(/C(=C(\Cl)c2ccccc2)c2ccccc2)cc1	inactive and active: 14.1 µM	
CC(=O)OCOC(=O)CN(CC(=O)OCOC(C)=O)c1ccccc1OCCOc1ccccc1N(CC(=O)OCOC(C)=O)CC(=O)OCOC(C)=O	inconclusive: 28.2 µM [inhibitor, partial curve]	
CC(C)C[C@H](NC(=O)[C@H](CCc1ccccc1)NC(=O)CN1CCOCC1)C(=O)N[C@@H](Cc1ccccc1)C(=O)N[C@@H](CC(C)C)C(=O)[C@@]1(C)CO1	active: 11.2 µM	
NC(=O)N/N=C/c1ccc([N+](=O)[O-])o1	inconclusive: 70.8 µM [inhibitor, partial curve]	
O=C(O[C@H]1CN2CCC1CC2)N1CCc2ccccc2[C@@H]1c1ccccc1	inconclusive: 35.5 µM [inhibitor, single point]	
O=C(O)c1[nH]n(-c2ccc(S(=O)(=O)O)cc2)c(=O)c1N=Nc1ccc(S(=O)(=O)O)cc1	active: 3.98 µM	
Cc1ccc(C(C)C)cc1-n1nnc(-c2cccc(Cc3ccc4ccccc4c3)c2)c1C(C)O (stereo unspecified)	inactive	
COc1ccc(CN2CCOc3ccc(C(O)c4cccnc4)cc3C2)cc1 (stereo unspecified)	inactive	
CC(C)c1c(O)ccc2c1CCC1C(C)(C)CCC[C@@]21C (stereo partly specified)	inconclusive: 22.4 µM [inhibitor, single point]	
CN1CCCC(n2nc(Cc3ccc(Cl)cc3)c3ccccc3c2=O)CC1 (stereo unspecified)	inconclusive: 35.5 µM [inhibitor, single point]	
COc1cccc([C@@H]2Oc3ccc(OC)cc3C[C@H]2OC(=O)Nc2ccc(OC(F)F)cc2)c1	inconclusive: 12.6 µM [inhibitor, single point]	
O=c1oc(-c2ccc(C(F)(F)F)cc2)nn1Cc1cc(Cl)ccc1O	inconclusive: 35.5 µM [inhibitor, single point]	
CO[C@@H](CCOCc1ccccc1)C[C@H]1O[C@H](C(=O)OC(C)C)C=C[C@@H]1C	inactive	
COc1ccc([C@H]2C[C@H](O)[C@@H](n3cc(C4CC4)nn3)CN2Cc2cccs2)cc1	inconclusive: 9.95 µM [inhibitor, partial curve, poor fit]	
Fc1ccc(-c2ncn(C3CCNCC3)c2-c2ccnc(Oc3ccc(Oc4ccccc4)cc3)n2)cc1	inconclusive: 12.5 µM [inhibitor, partial curve, poor fit]	
Oc1ccc2c3c1O[C@H]1c4c(c5ccccc5n4Cc4ccccc4)C[C@]4(O)[C@H](C2)N(CC2CC2)CC[C@@]314	active: 15.8 µM	
Cc1c(C(=O)N(C)C2CCCCC2)sc2nc3ccc(N)cc3n12	inconclusive: 35.5 µM [inhibitor, single point]	
Oc1ccc2c3c1O[C@H]1c4c(c5ccccc5n4Cc4ccccc4)C[C@@]4(O)C(C2)N(CC2CC2)CC[C@]314	active: 14.1 µM	

2 of these compounds, set out differently.

| SMILES | Potency | activity change, negative = inhibition |
| --- | --- | --- |
| Oc1ccc2c3c1O[C@H]1c4c(c5ccccc5n4Cc4ccccc4)C[C@]4(O)[C@H](C2)N(CC2CC2)CC[C@@]314 | active: 15.8 µM |  |
| Cc1c(C(=O)N(C)C2CCCCC2)sc2nc3ccc(N)cc3n12 | inconclusive: 35.5 µM [inhibitor, single point] |  |
